Starred links: 1 amine or outer side, 2 acyl side, 3 side chain; linkers in the order of their positions; H or OH if unused. Non-standard residues stand in square brackets, D forms with d. *: point of attachment. 2Nal = N[C@@H](Cc1ccc2ccccc2c1)C(=O)O; Suc = O=C(CCC(=O)[*:2])[*:1]; Bn = c1ccc(C*)cc1

The first data set is described as follows: general procedure: Fmoc solid-phase peptide synthesis; polyethylene glycol-grafted polystyrene beads or TentaGel S NH2 (peptide libraries). Particulars: late stage modification step.
“Suc-Pro[(3R)-2-Naphthyl]-Asn-Ala-Val-NH2”: the step yield was determined as 9.5%.

The data set is the same for the next values; noted with them: whole synthesis.
Consider Suc-Nal(2)-Asn-Ser-Val-Gly-NH(CH2)3OH, for which the “purity (crude or final not stated)” value was above 95%. Take “H-Asp-Ala[3-(3-Benzothienyl)]-Asn-Ala-Val-Gly-NH(CH2)3OH”: the “purity (crude or final not stated)” value is given as above 95%. On the same count and under the same terms, the value for H-Asp-nal(2)-Asn-Ser-Val-Gly-NH(CH2)3OH was 75-95%; that for Suc-Nal(2)-Asn-Ala-Gly(2-tBu)-NH2 was above 95%.

Consider “Suc-Pro[(3R)-2-Naphthyl]-Asn-Ala-Val-NH2”, for which the “purity (crude or final not stated)” value is listed as above 95%.

Take H-Asp-Nal(2)-Asn-Asp-Val-Gly-NH(CH2)3OH: the “purity (crude or final not stated)” value is above 95%.

Regarding H-Asp-Tyr-Asn-Ala-Va-Gly-NH(CH2)3OH, the “purity (crude or final not stated)” value is listed as above 95%. As to H-Asp-Nal(2)-Asn-Asp-Ile-Gly-NH(CH2)3OH, the “purity (crude or final not stated)” value is above 95%.

As for Suc-[2Nal]NAV-NH2, the “purity (crude or final not stated)” value is reported as above 95%. On the same count and under the same terms, the value for Suc-Pro[(3R)-2-Naphthyl]-Asn-Ala-Val-ol was above 95%. As to “H-Asp-Pro[(3S)-Phenyl]-Asn-Ser-Val-Gly-NH(CH2)3OH”, the “purity (crude or final not stated)” value is on record as 50-75%.

For the substance H-Asp-Phe-Asn-Ala-Val-Gly-NH(CH2)3OH, the “purity (crude or final not stated)” value was above 95%. The same measure, in the same setting: the result for H-D[2Nal]NSV-NH2 reads 75-95%; that for “H-Asp-Ala(3,3-Diphenyl)-Asn-Ala-Val-Gly-NH(CH2)3OH”, above 95%; that for H-Asp-Trp-Asn-Ala-Val-Gly-NH(CH2)3OH, above 95%. Same read-out and setting: the value for “H-Lys-Asp-Nal(2)-Asn-Ser-Val-Gly-NH(CH2)3OH” was above 95%; that for Suc-Nal(2)-Asn-Ala-Val-ol was above 95%. As for “Glutaryl-Nal(2)-Asn-Ser-Val-Gly-NH(CH2)3OH”, the “purity (crude or final not stated)” value is 75-95%. On the same count and under the same terms, the result for H-Asp-Pro-Asn-Ala-Val-Gly-NH(CH2)3OH reads above 95%; that for “H-βAsp-Nal(2)-Asn-Ser-Val-Gly-NH(CH2)3OH”, 75-95%; that for Suc-[2Nal]NAV-OH, above 95%. On the same count and under the same terms, the result for H-Asp-Nal(1)-Asn-Ala-Val-Gly-NH(CH2)3OH reads above 95%. The same measure, in the same setting: the value for Suc-Nal(2)-Asn-Ala-Val-N(CH3)2 was 75-95%.

Suc-Ala[3-(4-Biphenyl)]-Asn-Ala-Val-NH2: the “purity (crude or final not stated)” value is given as above 95%.

Consider “H-Cit-Asp-Nal(2)-Asn-Ser-Val-Gly-NH(CH2)3OH”, for which the “purity (crude or final not stated)” value was above 95%. Same read-out and setting: the result for “H-Asp-Ala[3-(4-Biphenyl)]-Asn-Ala-Val-Gly-NH(CH2)3OH” reads above 95%.

In the case of “H-Arg-Asp-Nal(2)-Asn-Ser-Val-Gly-NH(CH2)3OH”, the “purity (crude or final not stated)” value is given as 75-95%. The same measure, in the same setting: the result for H-Asp-Nal(2)-Asn-Ala-Val-Gly-NH(CH2)3OH reads above 95%; that for Suc-[2Nal]NGV-NH2, above 95%; that for Suc-Nal(2)-Asn-Ala-Val-Gly-NH(CH2)3OH, above 95%. With H-Asp-Nal(2)-Asn-Ala-Ile-Gly-NH(CH2)3OH, the “purity (crude or final not stated)” value was above 95%.

As for Suc-Y(Bn)NAV-NH2, the “purity (crude or final not stated)” value is reported as above 95%.

Regarding “H-Asn-Ile-Asp-Pro-Asn-Ala-Val-Gly-NH(CH2)3OH”, the “purity (crude or final not stated)” value is above 95%. Same read-out and setting: the value for “H-Asp-Pro[(3R)-Phenyl]-Asn-Ser-Val-Gly-NH(CH2)3OH” was 50-75%. The same measure, in the same setting: the value for H-D[2Nal]NSVG-NH2 was 75-95%. For the substance “Phthalyl-Nal(2)-Asn-Ser-Val-Gly-NH(CH2)3OH”, the “purity (crude or final not stated)” value is recorded as 50-75%.

Take H-Asp-Hof-Asn-Ser-Val-Gly-NH(CH2)3OH: the “purity (crude or final not stated)” value was 50-75%.

Turning to H-Asp-Nal(2)-Asn-Ser-Val-Gly-NH(CH2)3OH, the “purity (crude or final not stated)” value was above 95%. “H-Asp-Ala[3-(3-pyridyl)-Asn-Ser-Val-Gly-NH(CH2)3OH”: the “purity (crude or final not stated)” value is reported as 50-75%.

Values taken from patent publication US6365572B1 (Aventis Pharma Deutschland GmbH, priority 1999, dated 2002).
